Some of the results follow. The calls rarely recur for the same compound in another form.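 Kinases, fused to nanoluciferase, were expressed in K562 cells; luminescence was measured every 4 h from 2 to 18 h as percent of control (DMSO = 100%, positive control = 0%). A time point is decreased if signal falls significantly (2 sigma). Hits were called by the authors by a rule that is not shown; the count of time points alone does not decide it.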
Assays:
Assay in all cases: number of time points (of 5) at which kinase-Nluc abundance scored as decreased, DMSO-normalised (count); higher = more persistent destabilization
[1] = compound: CCS(=O)(=O)N1CCN(c2ccc(Nc3ncc(C(N)=O)c(NC4CC4)n3)cc2)CC1 [Cerdulatinib (hydrochloride)]; conditions: 10 µM; K562; 2-18 h
Cerdulatinib = compound: CCS(=O)(=O)N1CCN(c2ccc(Nc3ncc(C(N)=O)c(NC4CC4)n3)cc2)CC1 [Cerdulatinib]; conditions: 10 µM; K562; 2-18 h
[2] = compound: CCc1nc(C(N)=O)c(Nc2ccc(N3CCC(N4CCN(C)CC4)CC3)c(OC)c2)nc1NC1CCOCC1 [Gilteritinib hemifumarate]; conditions: 2 µM; K562; 2-18 h
Gilteritinib = compound: CCc1nc(C(N)=O)c(Nc2ccc(N3CCC(N4CCN(C)CC4)CC3)c(OC)c2)nc1NC1CCOCC1 [Gilteritinib]; conditions: 2 µM; K562; 2-18 h
[3] = compound: CN(C)C(=N)NC(=N)N [Metformin (hydrochloride)]; conditions: 10 µM; K562; 2-18 h
Metformin = compound: CN(C)C(=N)NC(=N)N [Metformin]; conditions: 10 µM; K562; 2-18 h
Ribociclib hydrochloride = compound: CN(C)C(=O)c1cc2cnc(Nc3ccc(N4CCNCC4)cn3)nc2n1C1CCCC1 [Ribociclib hydrochloride]; conditions: 2.5 µM; K562; 2-18 h
[4] = compound: CN(C)C(=O)c1cc2cnc(Nc3ccc(N4CCNCC4)cn3)nc2n1C1CCCC1 [Ribociclib succinate hydrate]; conditions: 2.5 µM; K562; 2-18 h
Ribociclib succinate = compound: CN(C)C(=O)c1cc2cnc(Nc3ccc(N4CCNCC4)cn3)nc2n1C1CCCC1 [Ribociclib succinate]; conditions: 10 µM; K562; 2-18 h
Ribociclib = compound: CN(C)C(=O)c1cc2cnc(Nc3ccc(N4CCNCC4)cn3)nc2n1C1CCCC1 [Ribociclib]; conditions: 10 µM; K562; 2-18 h
Afatinib (dimaleate) = compound: CN(C)C/C=C/C(=O)Nc1cc2c(Nc3ccc(F)c(Cl)c3)ncnc2cc1O[C@H]1CCOC1 [Afatinib (dimaleate)]; conditions: 2.5 µM; K562; 2-18 h
Afatinib = compound: CN(C)C/C=C/C(=O)Nc1cc2c(Nc3ccc(F)c(Cl)c3)ncnc2cc1O[C@H]1CCOC1 [Afatinib]; conditions: 10 µM; K562; 2-18 h
[5] = compound: CN1CCCN(C(=O)c2cccc(-c3ccc(/C=C4/C(=O)Nc5ccc(Cl)cc54)o3)c2)CC1 [CX-6258 (hydrochloride hydrate)]; conditions: 2.5 µM; K562; 2-18 h
CX-6258 (hydrochloride) = compound: CN1CCCN(C(=O)c2cccc(-c3ccc(/C=C4/C(=O)Nc5ccc(Cl)cc54)o3)c2)CC1 [CX-6258 (hydrochloride)]; conditions: 2.5 µM; K562; 2-18 h
[6] = compound: CN1CCCN(C(=O)c2cccc(-c3ccc(/C=C4/C(=O)Nc5ccc(Cl)cc54)o3)c2)CC1; conditions: 2.5 µM; K562; 2-18 h
[7] = compound: CNC(=O)c1cc(Oc2ccc(NC(=O)Nc3ccc(Cl)c(C(F)(F)F)c3)c(F)c2)ccn1 [Regorafenib (monohydrate)]; conditions: 2.5 µM; K562; 2-18 h
Regorafenib = compound: CNC(=O)c1cc(Oc2ccc(NC(=O)Nc3ccc(Cl)c(C(F)(F)F)c3)c(F)c2)ccn1 [Regorafenib]; conditions: 2.5 µM; K562; 2-18 h
[8] = compound: CNC(=O)c1ccc(Nc2ncc(C(F)(F)F)c(NCc3nccnc3N(C)S(C)(=O)=O)n2)cc1 [Defactinib (hydrochloride)]; conditions: 10 µM; K562; 2-18 h
Defactinib = compound: CNC(=O)c1ccc(Nc2ncc(C(F)(F)F)c(NCc3nccnc3N(C)S(C)(=O)=O)n2)cc1 [Defactinib]; conditions: 10 µM; K562; 2-18 h
PND-1186 (hydrochloride) = compound: CNC(=O)c1ccccc1Nc1cc(Nc2ccc(N3CCOCC3)cc2OC)ncc1C(F)(F)F [PND-1186 (hydrochloride)]; conditions: 10 µM; K562; 2-18 h

Amino acid sequences for entries named in this document (tags omitted). A change or cut given only in a name is not applied to a line headed by its entry.
UniProt P36888, whole entry: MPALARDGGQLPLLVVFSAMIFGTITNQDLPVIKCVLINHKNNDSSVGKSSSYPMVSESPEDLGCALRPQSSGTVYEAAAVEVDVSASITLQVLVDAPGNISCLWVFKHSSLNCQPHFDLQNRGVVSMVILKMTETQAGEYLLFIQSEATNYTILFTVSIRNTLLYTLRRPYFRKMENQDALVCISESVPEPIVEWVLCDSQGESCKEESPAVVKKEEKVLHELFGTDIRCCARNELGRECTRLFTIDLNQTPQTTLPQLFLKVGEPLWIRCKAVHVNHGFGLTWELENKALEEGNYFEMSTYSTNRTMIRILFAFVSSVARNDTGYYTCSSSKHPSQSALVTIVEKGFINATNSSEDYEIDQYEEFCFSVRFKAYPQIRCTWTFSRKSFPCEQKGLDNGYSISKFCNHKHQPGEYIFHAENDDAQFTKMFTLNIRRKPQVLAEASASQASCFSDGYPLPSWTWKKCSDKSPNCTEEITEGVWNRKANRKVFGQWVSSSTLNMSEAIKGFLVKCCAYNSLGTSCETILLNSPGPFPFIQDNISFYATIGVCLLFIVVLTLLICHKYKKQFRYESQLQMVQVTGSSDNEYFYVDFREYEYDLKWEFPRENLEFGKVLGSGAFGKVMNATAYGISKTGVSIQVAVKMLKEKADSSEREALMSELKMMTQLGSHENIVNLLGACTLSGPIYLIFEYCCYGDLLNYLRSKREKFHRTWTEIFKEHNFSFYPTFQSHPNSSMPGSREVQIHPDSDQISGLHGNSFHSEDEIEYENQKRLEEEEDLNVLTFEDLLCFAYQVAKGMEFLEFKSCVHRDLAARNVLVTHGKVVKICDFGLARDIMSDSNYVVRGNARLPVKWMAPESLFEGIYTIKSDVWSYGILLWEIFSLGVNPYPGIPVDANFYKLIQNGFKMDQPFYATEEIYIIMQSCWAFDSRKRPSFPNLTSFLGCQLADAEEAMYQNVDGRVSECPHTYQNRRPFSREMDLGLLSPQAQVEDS
UniProt P48729: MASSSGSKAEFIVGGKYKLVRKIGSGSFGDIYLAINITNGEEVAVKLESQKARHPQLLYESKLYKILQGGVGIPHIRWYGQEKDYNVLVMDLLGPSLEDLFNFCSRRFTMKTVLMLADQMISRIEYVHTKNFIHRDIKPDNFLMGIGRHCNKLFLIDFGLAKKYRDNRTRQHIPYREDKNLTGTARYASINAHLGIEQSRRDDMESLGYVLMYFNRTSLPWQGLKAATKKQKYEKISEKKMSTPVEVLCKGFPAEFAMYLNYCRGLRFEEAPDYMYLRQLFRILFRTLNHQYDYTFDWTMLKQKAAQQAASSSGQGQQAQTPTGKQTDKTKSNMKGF
UniProt P31152, whole entry: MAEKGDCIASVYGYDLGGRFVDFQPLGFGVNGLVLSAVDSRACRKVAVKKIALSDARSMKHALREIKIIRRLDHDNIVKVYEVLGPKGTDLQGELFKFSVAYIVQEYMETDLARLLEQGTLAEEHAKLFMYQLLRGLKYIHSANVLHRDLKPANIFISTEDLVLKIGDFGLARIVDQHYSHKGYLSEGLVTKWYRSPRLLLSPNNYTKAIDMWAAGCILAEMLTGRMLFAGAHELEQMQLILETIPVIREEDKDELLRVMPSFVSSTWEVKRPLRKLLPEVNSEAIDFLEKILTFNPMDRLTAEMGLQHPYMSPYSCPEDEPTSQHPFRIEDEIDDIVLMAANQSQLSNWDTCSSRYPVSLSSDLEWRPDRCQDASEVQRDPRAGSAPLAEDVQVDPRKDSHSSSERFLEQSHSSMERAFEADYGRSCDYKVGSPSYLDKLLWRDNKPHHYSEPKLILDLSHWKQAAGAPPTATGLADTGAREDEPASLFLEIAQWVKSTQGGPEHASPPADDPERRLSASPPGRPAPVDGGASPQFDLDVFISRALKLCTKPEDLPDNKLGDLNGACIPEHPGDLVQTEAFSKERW
UniProt P07333, whole entry: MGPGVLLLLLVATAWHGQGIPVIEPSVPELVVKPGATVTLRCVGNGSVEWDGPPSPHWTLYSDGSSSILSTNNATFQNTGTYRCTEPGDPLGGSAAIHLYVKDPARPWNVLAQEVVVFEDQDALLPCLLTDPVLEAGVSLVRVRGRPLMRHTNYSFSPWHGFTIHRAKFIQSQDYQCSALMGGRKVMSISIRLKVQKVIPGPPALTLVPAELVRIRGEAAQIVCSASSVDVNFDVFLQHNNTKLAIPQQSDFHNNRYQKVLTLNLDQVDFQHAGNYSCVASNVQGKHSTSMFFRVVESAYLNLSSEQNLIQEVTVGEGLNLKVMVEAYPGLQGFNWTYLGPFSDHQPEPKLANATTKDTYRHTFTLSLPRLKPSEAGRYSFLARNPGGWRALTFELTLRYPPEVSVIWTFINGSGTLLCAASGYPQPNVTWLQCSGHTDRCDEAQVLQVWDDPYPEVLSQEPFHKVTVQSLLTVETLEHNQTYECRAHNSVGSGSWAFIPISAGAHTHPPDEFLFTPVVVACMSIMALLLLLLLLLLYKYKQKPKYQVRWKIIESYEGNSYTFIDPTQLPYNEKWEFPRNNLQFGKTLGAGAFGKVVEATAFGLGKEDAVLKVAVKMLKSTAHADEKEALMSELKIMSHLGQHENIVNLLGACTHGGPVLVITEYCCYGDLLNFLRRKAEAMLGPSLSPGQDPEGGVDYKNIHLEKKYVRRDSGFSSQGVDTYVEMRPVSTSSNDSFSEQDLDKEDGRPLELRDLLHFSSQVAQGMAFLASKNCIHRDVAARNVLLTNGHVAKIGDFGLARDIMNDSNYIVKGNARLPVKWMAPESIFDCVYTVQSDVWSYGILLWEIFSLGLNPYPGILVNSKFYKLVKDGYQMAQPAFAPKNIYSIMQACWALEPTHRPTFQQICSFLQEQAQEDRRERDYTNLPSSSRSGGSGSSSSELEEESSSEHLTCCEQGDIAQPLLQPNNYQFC
UniProt Q15303, whole entry R711C: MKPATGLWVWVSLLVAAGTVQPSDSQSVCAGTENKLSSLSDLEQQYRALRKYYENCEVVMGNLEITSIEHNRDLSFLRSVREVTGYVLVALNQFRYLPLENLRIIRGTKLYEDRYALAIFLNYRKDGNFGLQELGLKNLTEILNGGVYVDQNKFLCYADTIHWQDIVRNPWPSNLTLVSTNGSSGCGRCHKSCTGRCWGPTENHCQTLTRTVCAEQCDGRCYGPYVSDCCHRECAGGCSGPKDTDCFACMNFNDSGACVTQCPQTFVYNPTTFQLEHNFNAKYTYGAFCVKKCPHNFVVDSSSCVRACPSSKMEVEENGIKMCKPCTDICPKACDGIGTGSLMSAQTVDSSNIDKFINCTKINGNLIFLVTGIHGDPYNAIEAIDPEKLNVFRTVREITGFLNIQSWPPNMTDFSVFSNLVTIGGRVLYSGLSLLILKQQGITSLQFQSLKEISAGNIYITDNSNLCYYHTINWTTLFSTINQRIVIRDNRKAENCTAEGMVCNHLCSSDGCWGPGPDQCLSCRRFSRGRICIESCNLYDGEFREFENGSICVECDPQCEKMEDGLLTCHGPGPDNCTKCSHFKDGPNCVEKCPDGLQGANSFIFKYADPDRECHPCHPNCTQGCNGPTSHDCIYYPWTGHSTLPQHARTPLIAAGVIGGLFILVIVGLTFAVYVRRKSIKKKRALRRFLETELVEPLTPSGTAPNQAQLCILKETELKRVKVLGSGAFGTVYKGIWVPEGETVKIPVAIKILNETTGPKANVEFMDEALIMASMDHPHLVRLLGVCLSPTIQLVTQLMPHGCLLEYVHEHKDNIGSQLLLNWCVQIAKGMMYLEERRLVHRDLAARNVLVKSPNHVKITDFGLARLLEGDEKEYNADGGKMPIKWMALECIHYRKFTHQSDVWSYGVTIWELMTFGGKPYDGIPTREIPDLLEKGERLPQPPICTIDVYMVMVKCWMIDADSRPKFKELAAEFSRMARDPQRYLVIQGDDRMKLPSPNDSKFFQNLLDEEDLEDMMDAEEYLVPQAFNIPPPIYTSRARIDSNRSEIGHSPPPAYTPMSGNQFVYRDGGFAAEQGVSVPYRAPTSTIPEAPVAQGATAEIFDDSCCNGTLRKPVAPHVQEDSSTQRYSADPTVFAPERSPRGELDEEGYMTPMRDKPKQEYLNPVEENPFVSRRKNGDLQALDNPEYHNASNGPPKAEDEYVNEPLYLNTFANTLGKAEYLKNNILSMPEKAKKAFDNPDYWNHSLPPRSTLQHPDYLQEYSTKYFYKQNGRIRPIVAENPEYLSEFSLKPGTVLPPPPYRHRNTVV

| Target | number of time points [1] | number of time points (Cerdulatinib) | number of time points [2] | number of time points (Gilteritinib) | number of time points [3] | number of time points (Metformin) | number of time points (Ribociclib hydrochloride) | number of time points [4] | number of time points (Ribociclib succinate) | number of time points (Ribociclib) | number of time points (Afatinib (dimaleate)) | number of time points (Afatinib) | number of time points [5] | number of time points (CX-6258 (hydrochloride)) | number of time points [6] | number of time points [7] | number of time points (Regorafenib) | number of time points [8] | number of time points (Defactinib) | number of time points (PND-1186 (hydrochloride)) |
| --- | --- | --- | --- | --- | --- | --- | --- | --- | --- | --- | --- | --- | --- | --- | --- | --- | --- | --- | --- | --- |
| RIPK2 (UniProt O43353) | 2 | 0 | 0 | 0 | 0 | 0 | 0 | 0 | 0 | 0 | 0 | 3 | 0 | 0 | 0 | 0 | 0 | 0 | 0 | 0 |
| FLT3 (UniProt P36888) | 4 | 0 | 0 | 0 | 0 | 0 | 0 | 0 | 0 | 0 | 0 | 3 | 0 | 0 | 0 | 0 | 0 | 0 | 2 | 0 |
| CSNK1A1 (UniProt P48729) | 3 | 0 | 0 | 0 | 0 | 0 | 0 | 0 | 0 | 0 | 0 | 0 | 0 | 0 | 0 | 0 | 2 | 0 | 1 | 0 |
| MAPK4 (UniProt P31152) | 0 | 0 | 0 | 0 | 0 | 0 | 0 | 0 | 0 | 0 | 0 | 1 | 0 | 0 | 0 | 0 | 0 | 0 | 0 | 0 |
| CSF1R (UniProt P07333) | 3 | 0 | 0 | 0 | 0 | 0 | 0 | 0 | 0 | 0 | 0 | 4 | 0 | 0 | 0 | 1 | 0 | 0 | 0 | 0 |
| EGFR_L858R (UniProt P00533) | 2 | 0 | 0 | 0 | 0 | 0 | 0 | 0 | 0 | 0 |  |  | 0 | 0 | 0 | 0 | 0 | 0 | 2 | 0 |
| EGFR_L718V (UniProt P00533) | 0 | 0 | 0 | 0 | 0 | 0 | 0 | 0 | 0 | 0 |  |  | 0 | 0 | 0 | 0 | 0 | 0 | 0 | 0 |
| ERBB4_R711C (clone: ERBB4_mut) (UniProt Q15303) | 4 | 0 | 0 | 0 | 0 | 0 | 0 | 0 | 0 | 0 | 0 | 3 | 0 | 0 | 0 | 0 | 0 | 3 | 4 | 0 |
| EGFR_T790M (UniProt P00533) | 0 | 0 | 0 | 0 | 0 | 0 | 0 | 0 | 0 | 0 |  |  | 0 | 0 | 0 | 0 | 0 | 0 | 0 | 0 |

Taken from above.
Value for FLT3 (UniProt P36888) under number of time points [2]: 0
Value for MAPK4 (UniProt P31152) under number of time points [2]: 0
